Test results from patent publication US9517222B2, “Method for the treatment of senile dementia of the Alzheimer's type” (Phenomenome Discoveries Inc., priority 2007, dated 2016).
A unit is not stated for every read-out.

How the values were obtained:
[1] = Serum ethanolamine phospholipid levels in human cohorts (dementia severity, post-mortem pathology, age) by flow-injection MS/MS
[2] = Serum ethanolamine phospholipid ratios to PtdEt 16:0/18:0 (M01) in human cohorts
[3] = serum, females, post mortem SDAT
[4] = serum, females, post mortem control

CCCCC/C=C\C/C=C\C/C=C\C/C=C\CCCCCC(=O)OC(COCCCCCCCCCCCCCCCCCC)COP(=O)(O)OCCN (centres unmarked) [Metabolite M13, Plasmanyl 18:0/22:4]
Ratio of serum levels ([1]; AD, All to CN, Male): 0.850 | Ratio of serum levels ([1]; ADAS 5-19 to CN, Male): 0.890 | Ratio of serum levels ([1]; ADAS 20-39 to 5-19, Male): 0.930 | Ratio of serum levels ([1]; ADAS 20-39 to CN, Male): 0.827 | Ratio of serum levels ([1]; ADAS 40-70 to 5-19, Male): 0.883 | Ratio of serum levels ([1]; ADAS 40-70 to 20-39, Male): 0.950 | Ratio of serum levels ([1]; ADAS 40-70 to CN, Male): 0.786 | Serum level, Mean ([1]; Cognitive Normal, Female): 0.013 | Average serum level, Mean ([1]; Cognitive Normal, Male): 0.013 | Serum level, Mean ([1]; Post Mortem Ctl, Male): 0.009 | Serum level, Mean ([1]; Post Mortem SDAT Male): 0.008 | Ratio of serum levels ([1]; Post mortem SDAT vs Control, Male): 0.576 | Serum level, Mean ([1]; SDAT, ADAS 5-19, Female): 0.011 | Average serum level, Mean ([1]; SDAT, ADAS 5-19, Male): 0.011 | Serum level, Mean ([1]; SDAT, ADAS 20-39, Female): 0.010 | Average serum level, Mean ([1]; SDAT, ADAS 20-39, Male): 0.010 | Serum level, Mean ([1]; SDAT, ADAS 40-70, Female): 0.010 | Average serum level, Mean ([1]; SDAT, ADAS 40-70, Male): 0.010 | Serum level, Mean ([1]; SDAT_all, Female): 0.010 | Average serum level, Mean ([1]; SDAT_all, Male): 0.011 | Ratio, ADAS 5-19 to CN, Female ([1]; serum level ratio, females, ADAS 5-19 vs CN): 0.834 | Ratio, ADAS 20-39 to 5-19, Female ([1]; serum level ratio, females, ADAS 20-39 vs ADAS 5-19): 0.953 | Ratio, ADAS 20-39 to CN, Female ([1]; serum level ratio, females, ADAS 20-39 vs CN): 0.794 | Ratio, ADAS 40-70 to 5-19, Female ([1]; serum level ratio, females, ADAS 40-70 vs ADAS 5-19): 0.936 | Ratio, ADAS 40-70 to 20-39, Female ([1]; serum level ratio, females, ADAS 40-70 vs ADAS 20-39): 0.982 | Ratio, ADAS 40-70 to CN, Female ([1]; serum level ratio, females, ADAS 40-70 vs CN): 0.780 | Ratio, 50-59 vs. 40-49, Female ([1]; serum level ratio, females, age 50-59 vs 40-49): 0.806 | Ratio, 60-69 vs. 40-49, Female ([1]; serum level ratio, females, age 60-69 vs 40-49): 0.737 | Ratio, 70+ vs. 40-49, Female ([1]; serum level ratio, females, age 70+ vs 40-49): 0.839 | Ratio, AD, All to CN, Female ([1]; serum level ratio, females, all AD vs cognitively normal): 0.800 | Ratio, Autopsy AD vs. Control, Female ([1]; serum level ratio, females, autopsy AD vs control): 0.865 | Ratio, 50-59 vs. 40-49, Male ([1]; serum level ratio, males, age 50-59 vs 40-49): 1.007 | Ratio, 60-69 vs. 40-49, Male ([1]; serum level ratio, males, age 60-69 vs 40-49): 1.032 | Ratio, 70+ vs. 40-49, Male ([1]; serum level ratio, males, age 70+ vs 40-49): 0.921 | Mean serum level, Age Ctl, 30-39, Female ([1]; serum, females, age 30-39): 0.013 | Mean serum level, Age Ctl, 40-49, Female ([1]; serum, females, age 40-49): 0.015 | Mean serum level, Age Ctl, 50-59, Female ([1]; serum, females, age 50-59): 0.012 | Mean serum level, Age Ctl, 60-69, Female ([1]; serum, females, age 60-69): 0.011 | Mean serum level, Age Ctl, 70+, Female ([1]; serum, females, age 70+): 0.012 | Mean serum level, Post Mortem SDAT, Female [1, 3]: 0.005 | Mean serum level, Post Mortem Ctl, Female [1, 4]: 0.010 | Mean serum level, Age Ctl, 30-39, Male ([1]; serum, males, age 30-39): 0.015 | Mean serum level, Age Ctl, 40-49, Male ([1]; serum, males, age 40-49): 0.013 | Mean serum level, Age Ctl, 50-59, Male ([1]; serum, males, age 50-59): 0.013 | Mean serum level, Age Ctl, 60-69, Male ([1]; serum, males, age 60-69): 0.013 | Mean serum level, Age Ctl, 70+, Male ([1]; serum, males, age 70+): 0.012 | Ratio of ethanolamine phospholipid ratios to M01 between cohorts ([2]; AD, All to CN, Male): 0.811 | Ratio of ethanolamine phospholipid ratios to M01 between cohorts ([2]; ADAS 5-19 to CN, Male): 0.846 | Ratio of ethanolamine phospholipid ratios to M01 between cohorts ([2]; ADAS 20-39 to CN, Male): 0.802 | Ratio of ethanolamine phospholipid ratios to M01 between cohorts ([2]; ADAS 40-70 to CN, Male): 0.772 | Average serum ethanolamine phospholipid ratio to M01, Mean ([2]; Cognitive Normal, Male, serum): 0.114 | Average serum ethanolamine phospholipid ratio to M01, Mean ([2]; SDAT, ADAS 5-19, Male, serum): 0.096 | Average serum ethanolamine phospholipid ratio to M01, Mean ([2]; SDAT, ADAS 20-39, Male, serum): 0.091 | Average serum ethanolamine phospholipid ratio to M01, Mean ([2]; SDAT, ADAS 40-70, Male, serum): 0.088 | Average serum ethanolamine phospholipid ratio to M01, Mean ([2]; SDAT_all, Male, serum): 0.092 | Ethanolamine Phospholipid Ratio to M01, Mean, Age Ctl, 30-39, Female ([2]; human serum, females aged 30-39): 0.129 | Ethanolamine Phospholipid Ratio to M01, Mean, Age Ctl, 40-49, Female ([2]; human serum, females aged 40-49): 0.136 | Ethanolamine Phospholipid Ratio to M01, Mean, Age Ctl, 50-59, Female ([2]; human serum, females aged 50-59): 0.122 | Ratio of Ethanolamine Phospholipid Ratio to M01, 50-59 vs. 40-49, Female ([2]; human serum, females aged 50-59 vs. females aged 40-49): 0.900 | Ethanolamine Phospholipid Ratio to M01, Mean, Age Ctl, 60-69, Female ([2]; human serum, females aged 60-69): 0.092 | Ratio of Ethanolamine Phospholipid Ratio to M01, 60-69 vs. 40-49, Female ([2]; human serum, females aged 60-69 vs. females aged 40-49): 0.680 | Ethanolamine Phospholipid Ratio to M01, Mean, Age Ctl, 70+_Female ([2]; human serum, females aged 70+): 0.104 | Ratio of Ethanolamine Phospholipid Ratio to M01, 70+ vs. 40-49, Female ([2]; human serum, females aged 70+ vs. females aged 40-49): 0.764 | Ratio of Ethanolamine Phospholipid Ratio to M01, 50-59 vs. 40-49, Male ([2]; human serum, males aged 50-59 vs. males aged 40-49): 1.035 | Ratio of Ethanolamine Phospholipid Ratio to M01, 60-69 vs. 40-49, Male ([2]; human serum, males aged 60-69 vs. males aged 40-49): 0.873 | Ratio of Ethanolamine Phospholipid Ratio to M01, 70+ vs. 40-49, Male ([2]; human serum, males aged 70+ vs. males aged 40-49): 0.787 | Ratio of ethanolamine phospholipid ratio to M01, ADAS 5-19 to CN, Female ([2]; serum, females, ADAS 5-19 vs cognitive normal): 0.914 | Ratio of ethanolamine phospholipid ratio to M01, ADAS 20-39 to 5-19, Female ([2]; serum, females, ADAS 20-39 vs ADAS 5-19): 0.934 | Ratio of ethanolamine phospholipid ratio to M01, ADAS 20-39 to CN, Female ([2]; serum, females, ADAS 20-39 vs cognitive normal): 0.854 | Ratio of ethanolamine phospholipid ratio to M01, ADAS 40-70 to 5-19, Female ([2]; serum, females, ADAS 40-70 vs ADAS 5-19): 0.882 | Ratio of ethanolamine phospholipid ratio to M01, ADAS 40-70 to 20-39, Female ([2]; serum, females, ADAS 40-70 vs ADAS 20-39): 0.944 | Ratio of ethanolamine phospholipid ratio to M01, ADAS 40-70 to CN, Female ([2]; serum, females, ADAS 40-70 vs cognitive normal): 0.806 | Ethanolamine phospholipid ratio to M01, Mean, SDAT, ADAS 5-19, Female ([2]; serum, females, SDAT ADAS 5-19): 0.101 | Ethanolamine phospholipid ratio to M01, Mean, SDAT, ADAS 20-39, Female ([2]; serum, females, SDAT ADAS 20-39): 0.095 | Ethanolamine phospholipid ratio to M01, Mean, SDAT, ADAS 40-70, Female ([2]; serum, females, SDAT ADAS 40-70): 0.089 | Ratio of ethanolamine phospholipid ratio to M01, AD, All to CN, Female ([2]; serum, females, all AD vs cognitive normal): 0.854 | Ethanolamine phospholipid ratio to M01, Mean, SDAT_all Female ([2]; serum, females, all SDAT): 0.095 | Ratio of ethanolamine phospholipid ratio to M01, Autopsy AD vs. Control, Female ([2]; serum, females, autopsy AD vs post mortem control): 1.122 | Ethanolamine phospholipid ratio to M01, Mean, Cognitive Normal, Female ([2]; serum, females, cognitive normal): 0.111 | Ethanolamine phospholipid ratio to M01, Mean, Post Mortem SDAT Female [2, 3]: 0.069 | Ethanolamine phospholipid ratio to M01, Mean, Post Mortem Ctl, Female [2, 4]: 0.061 | Ratio of ethanolamine phospholipid ratio to M01, ADAS 20-39 to 5-19, Male ([2]; serum, males, SDAT ADAS 20-39 vs ADAS 5-19): 0.948 | Ratio of ethanolamine phospholipid ratio to M01, ADAS 40-70 to 5-19, Male ([2]; serum, males, SDAT ADAS 40-70 vs ADAS 5-19): 0.913 | Ratio of ethanolamine phospholipid ratio to M01, ADAS 40-70 to 20-39, Male ([2]; serum, males, SDAT ADAS 40-70 vs ADAS 20-39): 0.963 | Ethanolamine phospholipid ratio to M01, Mean, Age Ctl, 30-39, Male ([2]; serum, males, age control 30-39): 0.126 | Ethanolamine phospholipid ratio to M01, Mean, Age Ctl, 40-49, Male ([2]; serum, males, age control 40-49): 0.117 | Ethanolamine phospholipid ratio to M01, Mean, Age Ctl, 50-59, Male ([2]; serum, males, age control 50-59): 0.121 | Ethanolamine phospholipid ratio to M01, Mean, Age Ctl, 60-69, Male ([2]; serum, males, age control 60-69): 0.102 | Ethanolamine phospholipid ratio to M01, Mean, Age Ctl, 70+_Male ([2]; serum, males, age control 70+): 0.092 | Ethanolamine phospholipid ratio to M01, Mean, Post Mortem SDAT Male ([2]; serum, males, post mortem SDAT): 0.060 | Ratio of ethanolamine phospholipid ratio to M01, SDAT vs Control (post mortem, males) ([2]; serum, males, post mortem SDAT vs post mortem control): 0.759 | Ethanolamine phospholipid ratio to M01, Mean, Post Mortem Ctl, Male ([2]; serum, males, post mortem control): 0.079
